Measurements published in PubChem BioAssay AID330 (DTP/NCI, 2004).
The list shows only some results of the screen, not a fair sample: it is rich in T/C values a quarter to a half above the control, in often repeated tests (any T/C) and in doses without a T/C. Further doses and runs are listed elsewhere. T/C is the treated group as % of the vehicle group. Some entries give survivors of the animals treated and no T/C: the source holds a T/C of zero for them, seemingly a mark for toxic or unscored doses. Some survivor counts are full or nearly so, which does not show that the dose was tolerated: survival well below the control is almost never listed, so the zero probably covers shortened survival too. Survivors were counted at the toxicity check, usually on the fifth day, unless a day is given; later deaths do not show. Schedule codes are those of the source, read here as Q, the interval in days (D) or hours (H), X, the number of doses. Some entries were tested several times; the results are listed from low to high. Some structures stand for samples that the source files as different forms (salt, stereo form or complex); doses refer to the form tested. For survival time, the PubChem record calls one and a half times the control and up active, and a quarter to a half above the control has no call in these data; cut-offs in other NCI protocols can differ. Additions like (4×) say how often a value occurs here. Some T/C values carry the count of animals alive at the toxicity check (mostly the fifth day); without a count, all were alive then.

Test system: P388 leukemia ip, CD2F1 mice, survival T/C
Experiment: NCI In Vivo Anticancer Drug Screen. Data for tumor model P388 Leukemia (intraperitoneal) in CD2F1 (CDF1) mice
Details: T/C endpoint: median survival time, higher T/C = longer survival
[1] = dose: 100.0 mg/kg/injection, schedule: Q01DX005 (ip), vehicle: Klucel (hydroxypropylcellulose) (HPC)
[2] = dose: 200.0 mg/kg/injection, schedule: Q01DX005 (ip), vehicle: Klucel (hydroxypropylcellulose) (HPC)
[3] = dose: 200.0 mg/kg/injection, schedule: Q04DX002 (ip), vehicle: saline with Tween-80
[4] = dose: 400.0 mg/kg/injection, schedule: Q04DX002 (ip), vehicle: saline with Tween-80
[5] = dose: 100.0 mg/kg/injection, schedule: Q04DX002 (ip), vehicle: saline with Tween-80
[6] = dose: 25.0 mg/kg/injection, schedule: Q01DX009 (ip), vehicle: saline with Tween-80
[7] = dose: 50.0 mg/kg/injection, schedule: Q01DX009 (ip), vehicle: saline with Tween-80
[8] = dose: 100.0 mg/kg/injection, schedule: Q01DX005 (ip), vehicle: saline with Tween-80
[9] = dose: 200.0 mg/kg/injection, schedule: Q01DX005 (ip), vehicle: saline with Tween-80
[10] = dose: 25.0 mg/kg/injection, schedule: Q01DX009 (ip), vehicle: Klucel (hydroxypropylcellulose) (HPC)
[11] = dose: 50.0 mg/kg/injection, schedule: Q01DX009 (ip), vehicle: Klucel (hydroxypropylcellulose) (HPC)

## CC1(C)CC23C4COC(=O)C2CCC1C3CC4=O (configuration not stated)
dose: 24.0 mg/kg/injection, schedule: Q01DX009 (ip), vehicle: DMSO
  survivor count: 6 of 6
dose: 96.0 mg/kg/injection, schedule: Q01DX009 (ip), vehicle: DMSO
  survivor count: 5 of 6

## CCNC1=CC(=O)c2ncccc2C1=O
dose: 50.0 mg/kg/injection, schedule: Q01DX009 (ip), vehicle: DMSO
  survivor count: 5 of 6

## CCc1c(CNc2ccc(Cl)c(Cl)c2)ccc2nc(N)nc(N)c12
dose: 25.0 mg/kg/injection, schedule: Q01DX005 (ip), vehicle: Klucel (hydroxypropylcellulose) (HPC)
  T/C: 127 and 130 % of control
dose: 50.0 mg/kg/injection, schedule: Q01DX005 (ip), vehicle: Klucel (hydroxypropylcellulose) (HPC)
  T/C: 140 % of control (2×)
[1]
  survivor count: 3 of 6 and 6 of 6
[2]
  survivor count: 2 of 6

## S=c1[nH]nc(NC2CCCCC2)s1
dose: 400.0 mg/kg/injection, schedule: Q04DX003 (ip), vehicle: saline with Tween-80
  survivor count: 0 of 6

## CC1=NN(C(=O)c2ccccc2)C(=O)C1N=Nc1ccc([N+](=O)[O-])cc1 (configuration not stated)
[3]
  survivor count: 6 of 6
[4]
  survivor count: 6 of 6

## CCCCCCNC(=O)C1C(=O)N(CCCCCC)C(=O)/C1=N\N=C(N)N (configuration not stated)
dose: 240.0 mg/kg/injection, schedule: Q01DX005 (ip), vehicle: saline with Tween-80
  survivor count: 3 of 6

## Cc1ccc(-c2nc(N)[nH]c2-c2ccc(C)cc2)cc1
[5]
  survivor count: 0 of 6
[3]
  survivor count: 0 of 6
[4]
  survivor count: 0 of 6

## O=C1c2ccccc2C(=O)c2c(NCCN3CCCCC3)ccc(NCCN3CCCCC3)c21
dose: 200.0 mg/kg/injection, schedule: Q01DX009 (ip), vehicle: other
  survivor count: 3 of 6
dose: 400.0 mg/kg/injection, schedule: Q01DX009 (ip), vehicle: other
  survivor count: 0 of 6

## N/N=C(/N)C1=NOCC1
dose: 400.0 mg/kg/injection, schedule: Q04DX002 (ip), vehicle: saline
  survivor count: 3 of 6

## Fc1ccccc1N=Cc1ccc(C=Nc2ccccc2F)cc1
dose: 60.0 mg/kg/injection, schedule: Q01DX005 (ip), vehicle: Klucel (hydroxypropylcellulose) (HPC)
  survivor count: 5 of 6
dose: 120.0 mg/kg/injection, schedule: Q01DX005 (ip), vehicle: Klucel (hydroxypropylcellulose) (HPC)
  survivor count: 6 of 6
dose: 240.0 mg/kg/injection, schedule: Q01DX005 (ip), vehicle: Klucel (hydroxypropylcellulose) (HPC)
  survivor count: 5 of 6

## C[CH2][Pb]([Br])([CH2]C)[CH2]C
[6]
  T/C: 132 % of control
[7]
  survivor count: 5 of 6

## CC(C)(C)/C=C/N1CCN=N1
[8]
  survivor count: 0 of 5
[9]
  survivor count: 0 of 5

## CC1=CC(C)(C)N=C(N)N1
dose: 100.0 mg/kg/injection, schedule: Q01DX005 (ip), vehicle: saline
  survivor count: 0 of 6
dose: 200.0 mg/kg/injection, schedule: Q01DX005 (ip), vehicle: saline
  survivor count: 0 of 6

## Cc1cc2nc3ccc(N(C)C)cc3nc2cc1N
[8]
  survivor count: 5 of 5
[9]
  survivor count: 0 of 5

## CNC(=N)c1ccc(NC(=N)c2ccc(NC(=N)c3ccc(NC(=O)Nc4ccc(C(=N)Nc5ccc(C(=N)Nc6ccc(C(=N)NC)cc6)cc5)cc4)cc3)cc2)cc1
dose: 6.0 mg/kg/injection, schedule: Q04DX003 (ip), vehicle: saline with Tween-80
  T/C: 125 % of control

## Cn1c(O)c(N=O)c(=O)[nH]c1=S
dose: 50.0 mg/kg/injection, schedule: Q04DX002 (ip), vehicle: saline
  survivor count: 4 of 6
[5]
  survivor count: 3 of 6
[3]
  survivor count: 0 of 6
[4]
  survivor count: 0 of 6

## COc1cccc(/C=C2/SC(=S)N(Cc3ccco3)C2=O)c1OC
[8]
  survivor count: 5 of 5
[9]
  survivor count: 5 of 5

## FC(F)(F)C[P+](c1ccccc1)(c1ccccc1)c1ccccc1
dose: 50.0 mg/kg/injection, schedule: Q01DX001 (ip), vehicle: saline
  T/C: 137 % of control

## CCN(CC)CC[n+]1ccc2c(C)c3[nH]c4ccc(O)cc4c3c(C)c2c1
dose: 25.0 mg/kg/injection, schedule: Q04DX003 (ip), vehicle: water
  survivor count: 3 of 5
dose: 50.0 mg/kg/injection, schedule: Q04DX003 (ip), vehicle: water
  survivor count: 1 of 5
dose: 100.0 mg/kg/injection, schedule: Q04DX003 (ip), vehicle: saline
  survivor count: 3 of 6
dose: 100.0 mg/kg/injection, schedule: Q04DX003 (ip), vehicle: suspension in saline
  survivor count: 0 of 6
dose: 200.0 mg/kg/injection, schedule: Q04DX003 (ip), vehicle: saline
  survivor count: 0 of 6
dose: 200.0 mg/kg/injection, schedule: Q04DX003 (ip), vehicle: suspension in saline
  survivor count: 1 of 6

## O=C1CC(=O)N2C=CC=CC2=N1
dose: 100.0 mg/kg/injection, schedule: Q01DX009 (ip), vehicle: saline
  survivor count: 6 of 6

## CCCCCCCCCCCCCCCC[N+](C)(C)CCOC(C)=O
[7]
  survivor count: 3 of 6
dose: 50.0 mg/kg/injection, schedule: Q01DX009 (ip), vehicle: saline
  survivor count: 3 of 6

## [N-]=[N+]=NC1=CC(=O)C(c2ccccc2)=CC1=O
dose: 100.0 mg/kg/injection, schedule: Q01DX009 (ip), vehicle: saline with Tween-80
  survivor count: 5 of 6

## C=C1CCN(c2ccccc2Cl)C1=O
dose: 16.0 mg/kg/injection, schedule: Q01DX009 (ip), vehicle: saline + alcohol
  T/C: 125 % of control
dose: 64.0 mg/kg/injection, schedule: Q01DX009 (ip), vehicle: saline + alcohol
  T/C: 125 % of control

## O=C1c2ccccc2CCC1Br (configuration not stated)
dose: 3.12 mg/kg/injection, schedule: Q01DX009 (ip), vehicle: DMSO
  survivor count: 6 of 6
dose: 25.0 mg/kg/injection, schedule: Q01DX009 (ip), vehicle: DMSO
  survivor count: 4 of 5

## CCOc1c(N=Nc2cccc([N+](=O)[O-])c2)c(C)nn1C(N)=S
dose: 60.0 mg/kg/injection, schedule: Q01DX005 (ip), vehicle: Klucel + Tween-80
  survivor count: 0 of 6 and 3 of 6
dose: 120.0 mg/kg/injection, schedule: Q01DX005 (ip), vehicle: Klucel + Tween-80
  survivor count: 0 of 6
dose: 240.0 mg/kg/injection, schedule: Q01DX005 (ip), vehicle: Klucel + Tween-80
  survivor count: 0 of 6

## CC(C)CCC(=O)OCCN1CCN(CCCN2c3ccccc3Sc3ccc(C(F)(F)F)cc32)CC1
dose: 12.5 mg/kg/injection, schedule: Q01DX009 (ip), vehicle: Klucel (hydroxypropylcellulose) (HPC)
  T/C: 134 % of control
[10]
  T/C: 129 % of control
  survivor count: 6 of 6
[11]
  T/C: 122 % of control [5 of 6 alive]
  survivor count: 2 of 6, 3 of 6, 6 of 6
dose: 100.0 mg/kg/injection, schedule: Q01DX009 (ip), vehicle: Klucel (hydroxypropylcellulose) (HPC)
  survivor count: 0 of 6, 3 of 6, 4 of 6
dose: 200.0 mg/kg/injection, schedule: Q01DX009 (ip), vehicle: Klucel (hydroxypropylcellulose) (HPC)
  survivor count: 0 of 6

## CC(C)(C)C1CC=CC(=O)CC1 (configuration not stated)
dose: 400.0 mg/kg/injection, schedule: Q01DX009 (ip), vehicle: Klucel (hydroxypropylcellulose) (HPC)
  survivor count: 0 of 6

## O=[n+]1c2ccccc2n([O-])c2cc(Cl)ccc21
[6]
  T/C: 139 % of control
dose: 200.0 mg/kg/injection, schedule: Q01DX009 (ip), vehicle: saline with Tween-80
  survivor count: 5 of 6 and 6 of 6
dose: 400.0 mg/kg/injection, schedule: Q01DX009 (ip), vehicle: saline with Tween-80
  survivor count: 1 of 6

## CN1N=C(C2=NN(C)C(=O)N(C)N2)NN(C)C1=O
[1]
  survivor count: 0 of 5
[2]
  survivor count: 0 of 5

## CC(C)C1[NH][Sn]2([NH]C(C(C)C)C(=O)[O]2)[O]C1=O (configuration not stated)
[2]
  survivor count: 1 of 6
